Values quoted from earlier work, collected in US20120164203A1, “PROCESS FOR PREPARATION OF STABLE, MICROENCAPSULATED AND SUSTAINED RELEASE BIOCIDAL ACTIVES AND COMPOSITION THEREOF” (priority 2009, published 2012).
Some of these results come from one statement about several compounds together.

Settings: 25° C., near atmospheric pressure; cited from earlier work

Structure (SMILES)	solubility in pure water
CCCC1COC(Cn2cncn2)(c2ccc(Cl)cc2Cl)O1 (centres unmarked) [propiconazole]	≥ 100 µg/mL
CC(C)(C)C(O)(CCc1ccc(Cl)cc1)Cn1cncn1 (centres unmarked) [tebuconazole]	≥ 100 µg/mL
